Assay results taken from patent US9133457B2, “Methods of incorporating amino acid analogs into proteins” (California Institute of Technology, priority 2004, dated 2015).
The name of at least one read-out is uncertain.

Chains of the proteins cited; added tags and fusions are not shown.
UniProt P15625, whole entry T415G: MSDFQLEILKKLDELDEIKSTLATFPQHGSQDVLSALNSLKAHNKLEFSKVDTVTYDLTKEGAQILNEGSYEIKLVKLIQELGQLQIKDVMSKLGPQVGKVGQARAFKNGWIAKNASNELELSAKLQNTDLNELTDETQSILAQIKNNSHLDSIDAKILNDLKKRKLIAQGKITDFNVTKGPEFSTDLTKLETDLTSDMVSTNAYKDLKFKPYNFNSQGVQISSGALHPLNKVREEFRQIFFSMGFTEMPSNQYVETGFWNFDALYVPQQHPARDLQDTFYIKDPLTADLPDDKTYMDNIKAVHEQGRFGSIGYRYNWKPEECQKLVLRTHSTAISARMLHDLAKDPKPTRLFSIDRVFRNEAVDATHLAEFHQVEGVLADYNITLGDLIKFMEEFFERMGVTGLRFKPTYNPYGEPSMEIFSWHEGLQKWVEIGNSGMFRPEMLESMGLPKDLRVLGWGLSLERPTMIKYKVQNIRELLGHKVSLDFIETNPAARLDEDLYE

Biological target: T1, mu-yPheRS (modified yeast PheRS, Thr415Gly) (Saccharomyces cerevisiae, UniProt P15625, T415G)
T1 construct: made in house
Experiment: adenosine triphosphate-pyrophosphate exchange assay (amino acid activation)
Format: biochemical
Settings: in vitro
Method: The modified yeast PheRS (mu-yPheRS) was prepared by introduction of a Thr415Gly mutation in the α-subunit of the synthetase (Datta el al., J. Am. Chem. Soc. 124: 5652, 2002). The kinetics of activation of Nal and Phe by mu-yPheRS were analyzed in vitro via the adenosine triphosphate-pyrophosphate exchange assay.

N[C@@H](Cc1ccc2ccccc2c1)C(=O)O [Nal, L-3-(2-naphthyl)alanine]
specificity constant (kat/KM) for activation by mu-yPheRS: 0.00155 M⁻¹ s⁻¹
